# Primary screen of a compound library

Sequences of proteins named here, by UniProt entry; tags and fusion partners are left off.
UniProt E9BF75, entry or part of it: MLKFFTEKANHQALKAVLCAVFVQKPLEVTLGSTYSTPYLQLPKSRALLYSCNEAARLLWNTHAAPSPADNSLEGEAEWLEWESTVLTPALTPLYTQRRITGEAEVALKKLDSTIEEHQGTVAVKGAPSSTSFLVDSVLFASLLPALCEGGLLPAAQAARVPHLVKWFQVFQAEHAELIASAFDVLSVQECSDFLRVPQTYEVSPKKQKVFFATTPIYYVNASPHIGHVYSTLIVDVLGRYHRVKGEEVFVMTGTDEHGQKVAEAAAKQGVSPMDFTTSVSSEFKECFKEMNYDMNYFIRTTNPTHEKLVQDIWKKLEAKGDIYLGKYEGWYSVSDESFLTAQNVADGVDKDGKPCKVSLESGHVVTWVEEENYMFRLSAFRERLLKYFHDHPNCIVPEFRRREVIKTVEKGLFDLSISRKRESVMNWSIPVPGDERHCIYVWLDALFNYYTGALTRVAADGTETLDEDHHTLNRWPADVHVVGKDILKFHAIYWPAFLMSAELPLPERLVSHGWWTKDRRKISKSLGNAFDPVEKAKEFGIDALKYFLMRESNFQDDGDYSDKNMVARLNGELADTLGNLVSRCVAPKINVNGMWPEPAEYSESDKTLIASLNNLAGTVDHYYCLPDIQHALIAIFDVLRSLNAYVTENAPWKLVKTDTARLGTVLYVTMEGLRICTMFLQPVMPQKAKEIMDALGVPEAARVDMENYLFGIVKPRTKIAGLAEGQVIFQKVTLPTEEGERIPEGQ

Mtb heat-shock: 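Assay on Mycobacterium tuberculosis, filed only as a heat shock assay from Cornell; the read-out is not stated. The concentration is filed as 10 mM, unlikely as a test dose, so the dose is not known. Direction is inferred from retests: higher values go with stronger inhibition. Size under these conditions: about 69,000 compounds, about 930 of them at 50% or above in at least one test.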
LdMetRS: 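Primary screen of methionyl-tRNA synthetase; the read-out is not stated. Target: Methionyl-tRNA synthetase (putative), Leishmania donovani (UniProt E9BF75). The test concentration is not given. The values are filed as inhibition. Size under these conditions: about 68,000 compounds, about 24 of them at 50% or above in at least one test.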
Mtb growth Cornell: 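Whole-cell assay for inhibitors of Mycobacterium tuberculosis growth, labelled Cornell in the record; the read-out is not stated. The concentration is filed as 10 mM, unlikely as a test dose, so the dose is not known. The record gives no direction; compounds strong in two other growth screens of this library score well above the rest, so higher reads as stronger inhibition. About 53,000 compounds were tested under these conditions; 1.7% (about 900) showed 50% or more at least once.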

Results are percentages, as filed.
The controls that fix the scale are not given in the record; negative values are as filed.
The compounds are a random part of those screened.
A dash means the value is not listed here; it may have been measured.

| # | compound | Mtb heat-shock | LdMetRS | Mtb growth Cornell |
|---|---|---|---|---|
| 1 | `CC(C)CCn1[nH]c(CNc2ccccc2)nc1=O` | -5.953% | 11.97% | 5.378% |
| 2 | `CC(C)NC(=O)[C@@H]1C[C@@H]2CCN(Cc3ccoc3)C[C@H]2O1` | - | 12.4% | - |
| 3 | `O=C(Cc1cccc(F)c1)N1CCc2ncnc(NC3CCC3)c2CC1` | 4.057% | 17.05% | 15.95% |
| 4 | `CC(C)N(C)CCCNC(=O)c1cnc(-c2ccccc2)nc1` | -7.546% | 6.32% | -27.33% |
| 5 | `Cc1ccccc1N1CCN(C(=O)c2cccnc2-n2cncn2)CC1` | -11.6% | 10.87% | -24.93% |
| 6 | `Cc1ncc2c(n1)CN(Cc1nc3ccccc3o1)CC2` | 3.855% | 23.08% | - |
| 7 | `CC(C)Cc1ncc2c(n1)CN(c1nc(N(C)C)nc3c1CCCC3)C2` | -0.1538% | 6.03% | 11.1% |
| 8 | `Cc1cc(F)ccc1N1CCC(N2C[C@@H](CN(C)C)[C@@H](CO)C2)CC1` | 101.8% | 7.843% | 20.05% |
| 9 | `CN(C)c1ccc(C(=O)Nc2ccn(CCc3ccncc3)n2)cn1` | 5.717% | 8.683% | - |
| 10 | `CN(C)C(=O)[C@H]1C[C@@H]2CN(S(=O)(=O)c3ccccc3)C[C@H]1O2` | - | 17.46% | - |
| 11 | `Cc1ccccc1C(=O)N1CC[C@@H](N(C)C)[C@@H]1Cc1cnn(C)c1.O=C(O)C(F)(F)F` | -16.62% | - | 0.2102% |
| 12 | `[H][C@]12CC[C@]([H])(CN(C(=O)c3cnccn3)C1)N(Cc1cnn(CC)c1)C2` | 6.426% | - | 19.98% |
| 13 | `O=C(O)Cc1cccc(-n2ccnc2-c2ccc(Cl)s2)c1` | -1% | 11.39% | 4.215% |
| 14 | `Cc1nc(N(C)CCCc2nccn2C)c2c(C)nn(C)c2n1` | 15.13% | 5.842% | 18.08% |
| 15 | `[H][C@@]12CCN(C(=O)Nc3cccc4cc(C)oc34)C[C@@]([H])(CC1)N2C` | 25.84% | - | -20.19% |
| 16 | `CC(C)CC(=O)NCCCc1cc(N)n(-c2ccccc2)n1` | -22.47% | 9.581% | -1.743% |
| 17 | `FC1(F)CCN(Cc2ccncc2)CC12CCN(c1cnccn1)C2.O=C(O)C(F)(F)F.O=C(O)C(F)(F)F.O=C(O)C(F)(F)F` (stereo not drawn) | -8.606% | - | - |
| 18 | `COCCN1CCC2(CC1)CC(N1CCOCC1)c1ccc(C)cc12` (stereo not drawn) | - | 8.964% | - |
| 19 | `Cc1cc(C[C@@H]2COC[C@H]2NCc2ccc(C(C)C)cc2)on1.O=C(O)CC(O)(CC(=O)O)C(=O)O` | 9.353% | - | -2.664% |
| 20 | `[H][C@@]12CCN(C(C)=O)C[C@]1([H])OCCN(Cc1ccc(OC)cc1)C2=O` | -14.91% | - | -9.063% |
| 21 | `CS(=O)(=O)N1C[C@H]2CN(CC3CC3)C(=O)[C@H]2C1` | - | 2.732% | - |
| 22 | `CN1Cc2[nH]nc(COCC3CC3)c2C1.O=C(O)C(F)(F)F.O=C(O)C(F)(F)F` | -32.42% | - | 28.12% |
| 23 | `CCn1cc2c(n1)C(COC)CN(C(=O)CCOc1ccccc1)C2` (stereo not drawn) | -20.1% | 7.843% | 6.875% |
| 24 | `COc1ccc(CN(C)C(=O)CCC(=O)c2cccs2)c(OC)c1OC` | -11.67% | 17.5% | 32.22% |
| 25 | `Cc1ccc(NC2CCN(C(=O)c3cccnc3O)CC2)nn1` | -12.74% | 5.422% | - |
| 26 | `COCCc1noc(CN2CCCC2c2noc(C3CC3)n2)n1` (stereo not drawn) | -21.27% | 4.087% | 7.25% |
| 27 | `CCOC(=O)N1CCC(OC)c2ccccc2N(C)C(=O)C1` (stereo not drawn) | 39.38% | 11.23% | -3.07% |
| 28 | `COCCCN1CC2(CCN(Cc3cc(C(C)C)no3)CC2)CC1=O` | -6.811% | 12.71% | 11.64% |
| 29 | `CCNC(=O)Cc1ccc(-c2cccc3c2CCNC3)cc1` | 0.6607% | 9.162% | -0.007981% |
| 30 | `CC(C)CS(=O)(=O)CCNc1ncccn1` | 6.929% | 15.16% | 5.373% |
| 31 | `COCCSc1ccc(-n2cccn2)nn1` | 11.63% | 6.832% | -7.611% |
| 32 | `O=C(NC[C@]12COC[C@H]1CN(Cc1nccs1)C2)N1CCCC1` | - | 17.01% | - |
| 33 | `CN1CCN(C(=O)c2n[nH]c3c2CN(C2CCOC2)CC3)CC1` (stereo not drawn) | 1.371% | 10.64% | 7.321% |
| 34 | `CN1CCc2onc(CNc3ncccn3)c2C1` | - | 2.929% | - |
| 35 | `CCCS(=O)(=O)CC(=O)Nc1cc(CC(C)(C)C)n[nH]1` | 5.416% | 8.333% | - |
| 36 | `CCOCCn1nc(C)cc1C(=O)N1CCCC[C@H](N(C)C)C1` | -23.47% | 13.38% | 7.062% |
| 37 | `[H][C@@]12CN(CC3CC3)CCO[C@]1([H])CN(C(=O)c1ocnc1C)C2` | -0.5077% | - | 23.85% |
| 38 | `CS(=O)(=O)NCc1noc2c1CN(C(=O)C1CCC1)CC2` | 48.52% | 6.452% | -14.47% |
| 39 | `Cc1nn(C)c2ncnc(N(C)CC3CCN(CC(C)C)C3)c12` (stereo not drawn) | 1.619% | 14.52% | 20.48% |
| 40 | `COCCNC(=O)[C@@]12CCO[C@@H]1CCN(Cc1cc(C)on1)C2` | - | 4.667% | - |
| 41 | `C=C(C)COc1cccc(CNCCc2nc(N)cc(O)n2)c1` | -11.84% | 10.45% | - |
| 42 | `CCOc1ncccc1NC(=O)N1CCN(c2cccc(C)c2C)CC1` | 22.69% | 11.75% | 28.31% |
| 43 | `O=C(c1cc2cc(F)ccc2[nH]1)N1CCC(Nc2ccc(F)cc2)CC1` | -18.16% | 18.71% | - |
| 44 | `Clc1cc(NCc2ccncc2)nc2[nH]ccc12` | -17.43% | 10.53% | 4.685% |
| 45 | `CN(C)CC1CN(Cc2nnc(-c3ccccc3Cl)o2)CCO1` (stereo not drawn) | -9.712% | -1.399% | - |
| 46 | `COCC(=O)N1CC(c2csc(NC(C)=O)n2)C1` | 22.98% | 9.032% | -6.667% |
| 47 | `Cc1cccc(COc2ccc(NC(=O)C(C)NC(N)=O)c(C)c2)c1` (stereo not drawn) | 11.07% | 10.14% | 12.73% |
| 48 | `CN(Cc1ccccc1)CC(C)(C)NC(=O)c1ccon1` | -2.475% | 11.39% | -3.207% |

Some entries from above, unchanged:

Cc1ncc2c(n1)CN(Cc1nc3ccccc3o1)CC2 read Mtb heat-shock: 3.855%; LdMetRS: 23.08%.
[H][C@@]12CN(CC3CC3)CCO[C@]1([H])CN(C(=O)c1ocnc1C)C2 read Mtb heat-shock: -0.5077%; Mtb growth Cornell: 23.85%.
CCn1cc2c(n1)C(COC)CN(C(=O)CCOc1ccccc1)C2 (stereo not drawn) read Mtb heat-shock: -20.1%; LdMetRS: 7.843%; Mtb growth Cornell: 6.875%.
COCCc1noc(CN2CCCC2c2noc(C3CC3)n2)n1 (stereo not drawn) read Mtb heat-shock: -21.27%; LdMetRS: 4.087%; Mtb growth Cornell: 7.25%.

Source: ChEMBL document CHEMBL3988442, “University of Dundee, Small-Polar-MMV Screening Library” (2021).